Drawing on article PMC9426557, this text covers binding for three molecules.

Chains of the proteins cited; added tags and fusions are not shown. Lines headed by an entry give the natural chain unless they say otherwise; changes in a name come on top.
UniProt Q1K8X0: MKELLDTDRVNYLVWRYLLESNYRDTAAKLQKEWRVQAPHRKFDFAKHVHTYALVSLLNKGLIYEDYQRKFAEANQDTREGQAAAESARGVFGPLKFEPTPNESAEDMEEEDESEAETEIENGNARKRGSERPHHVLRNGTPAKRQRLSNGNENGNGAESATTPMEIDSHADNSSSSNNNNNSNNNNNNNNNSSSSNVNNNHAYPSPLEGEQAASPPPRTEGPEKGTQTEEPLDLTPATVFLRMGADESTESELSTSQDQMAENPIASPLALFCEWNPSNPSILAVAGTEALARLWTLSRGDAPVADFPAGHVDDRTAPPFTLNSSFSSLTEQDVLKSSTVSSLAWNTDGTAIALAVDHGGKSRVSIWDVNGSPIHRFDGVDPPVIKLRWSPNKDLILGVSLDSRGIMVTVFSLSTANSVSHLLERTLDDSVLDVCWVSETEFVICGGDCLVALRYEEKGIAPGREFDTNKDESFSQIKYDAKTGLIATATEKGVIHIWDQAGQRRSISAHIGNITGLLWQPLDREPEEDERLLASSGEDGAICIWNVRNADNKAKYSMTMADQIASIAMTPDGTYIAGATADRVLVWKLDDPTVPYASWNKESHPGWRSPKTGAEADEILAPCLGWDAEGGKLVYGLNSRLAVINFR

These are yes or no findings as the source states them, for the method shown. In cells and extracts the contact can be indirect. Binding calls can cover weak binding; strength is not graded here. Tags and fused reporters may be left off the sequences shown.

Experiment [1] deals with SIF-2 (endogenous) (Neurospora crassa (endogenous in N. crassa mycelium)) (UniProt Q1K8X0). Put plainly: co-IP; N. crassa WT-strain cell extracts with ectopic Myc-tagged protein, precipitated with anti-HDA-2 or anti-SIF-2 antibody, protein G-Sepharose; eluates blotted with anti-Myc and anti-HDA-2 or anti-SIF-2.
In experiment [2] the target is Myc-SIF-2 (Neurospora crassa). Put plainly: co-IP; N. crassa cell extracts (4 mg/mL) incubated with monoclonal anti-c-Myc antibody 4 h at 4°C, protein G-Sepharose; eluates blotted with anti-SIF-2 or anti-HDA-2 and anti-Myc.
Experiment [3] addresses Myc-SNT-1 (Neurospora crassa). The description is as above.

B1: Myc-SET-4 (protein, UniProt Q7RZ84 1-948)
chain: MTDKLPSLLTPIAPPSRTSFSVSAAVPVQDGIRAQENVEEEPYTIRCICKYPDDDGNTIYCELCDTWQHIECYYPNNSEDALRDPDFAHFCVECQPRPLDRERAKENQRRKLTTGVTEGMADKKSKRPISKSHKKKPKPSDLPLTGQHSKAEKQASIQDSHPPTKKSKSSHKSSHSVSSQAAKRSPQFGSTKSNHAHPPSPAATPPDLPADFEIHTYAPALLSGSSDRGVEIVHTNSFASLQVSNAISAWLRDHNKLQKETGWAYADIFQPLPPNIDQLKRPVDIELSRKTLGQGTVASWKCLKAPSAIAHNVPLVELNGQIGIQSSYCADPDSRWQELTSPLPYVFFHPMLPIYIDTRKEGSQARYIRRSCKPNAMLETYLSDGYELHFWLVTDRQVAAREEITLPWDFRFPNENKSRMLRVLGLSDEDTSAHAESSVDDGEYQALTSWLHNILSEYGGCACNLGSECAFARFHRNHLGKSQAPANPPKTKKRKSKTQSSSTIGTGPATDSRAASEGHLEDAPENDRRSVSGSARSKPPSRDLTPTARQGSFDTLGILTEPTDRDKRKVSMIEETFRRIELQQQPTKKRKARGSDAATTSKKGSKSSATTQTTNATNGPDERHCHFANGETAITSKATSPAASAKSGRVTKSKKTSSRKGSVAVVSHPVPAQPVRLPSRPKYADAGTQTNPDTEANPAPSPARPKRRLVSVTMRIMQHHRWLKEQQGKQRLLNQAVATVPMDVDSPKDNKAVVSVAGSVQDTTLKPSAPSKVTTSDVEMPDAPTVSASHLKAAQSTSVVTAPKSKVLDLRVPMPPVPPFPSSTSLALTSTTSLPAGTSAAQSSFSVTGLPSPLGPSSINGLTANPSPIKKKLSLSDYTKSRMNKAAAARPSVSVPSLKPNAALDEPKLTTSDDNGGAASGSPTTEKVTDTTGSTTAALALTTASSSV
In the case of B1, the binding entry in experiment [1] is recorded as “binds”.

B2: Myc-CPR-1 (protein, UniProt Q7S7Z6 28-285)
chain: AKGPKITHKVYFDIEQGDKPLGRIVMGLYGKTVPKTAENFRALATGEKGFGYEGSTFHRVIKQFMIQGGDFTKGDGTGGKSIYGDKFPDENFKLKHSKKGLLSMANAGKDTNGSQFFITTVITSWLDGKHVVFGEVLEGYDVVEKIENTKTGPRDAPAEPIKIAKSGELEVPPEGLEGQSEWASPAYANEDEKPAAPVPVTDAKPPAHDSIPAATADDDDTGAPLFAKVLFFGVLVLGLVLYIRLRRAPKGTYGKGME
With B2, the binding result in experiment [1] is “binds”.

B3: HDA-2 (histone deacetylase 2, endogenous) (enzyme, UniProt Q7SEL7 1-499)
chain: MDTLQSLQWRPPKPNYLPHDIDVDEPIVDVYKPPIPMDKASDRENQEYYAHMKRMAHEYNITRPKGYTVSYHFNPDMEPHHFGLTHPMKPFRLTLTKSLVTAYGMNFAMDNYNTRIATYEELNSFHTSDYLDYLHMAPPEEMPRDIDNPDKEVKFNLGGSDCPLFHGLYDYCSMSAGSSLDAARKICNKQSDIAIAWGGGLHHAKKSEASGFCYINDIVIAILQLLRCYPRVLYIDIDVHHGDGVEEAFHSTDRVLTCSFHKFAPEVFFPGTGGLDDNGPKSEHNPGAHHAINVPLNDGITDEQYGHLFQSVIGKINEKFRPSVIALQCGADSLAGDRLGRFNLQVQGHGACAKFCKTFGIPMIMFGGGGYTPRNVARAWAYETSVAIDVDEKINKIIPDHTPWRKHFVQEELFPSLEQILGEPRANRNSQKRLQEIIQHVHEQLRFVNAAPSVQQQVIPPDLGGIRDDVEDRLKEESEERDEGLRRDREEGLGISGEF
As to B3, the binding entry in experiment [2] and in experiment [3] was “binds” throughout.
